These are yes or no findings as the source states them, for the method shown. In cells and extracts the contact can be indirect. Some results given as binding are weak or reduced against the parent protein; the word gives no strength.
Biological target: p53 (rat (endogenous in kidney tissue)) (UniProt P10361)
Assay: co-IP; kidney tissue lysate (about 300 ug total protein) incubated overnight at 4°C with anti-P53, precipitated with protein A/G-Plus-Agarose 4 h at 4°C, nonspecific IgG as control; blotted for Bcl-xL and Bcl-2; rats of the sham, 5/6 (A/I), 5/6 (A/I)+SSR and 5/6 (A/I)+Losartan groups

The chains behind the UniProt entries cited, without tags or fusion partners.
UniProt P10361: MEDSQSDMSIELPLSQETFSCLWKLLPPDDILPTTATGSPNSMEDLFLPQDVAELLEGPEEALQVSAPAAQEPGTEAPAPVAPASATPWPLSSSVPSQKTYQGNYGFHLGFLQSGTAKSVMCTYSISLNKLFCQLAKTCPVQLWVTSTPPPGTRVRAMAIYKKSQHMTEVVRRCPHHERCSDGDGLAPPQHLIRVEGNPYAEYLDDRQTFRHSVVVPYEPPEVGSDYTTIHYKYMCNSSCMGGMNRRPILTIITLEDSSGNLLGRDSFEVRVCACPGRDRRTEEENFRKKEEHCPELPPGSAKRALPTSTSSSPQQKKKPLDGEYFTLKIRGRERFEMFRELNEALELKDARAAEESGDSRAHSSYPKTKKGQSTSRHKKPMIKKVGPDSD
UniProt P49950: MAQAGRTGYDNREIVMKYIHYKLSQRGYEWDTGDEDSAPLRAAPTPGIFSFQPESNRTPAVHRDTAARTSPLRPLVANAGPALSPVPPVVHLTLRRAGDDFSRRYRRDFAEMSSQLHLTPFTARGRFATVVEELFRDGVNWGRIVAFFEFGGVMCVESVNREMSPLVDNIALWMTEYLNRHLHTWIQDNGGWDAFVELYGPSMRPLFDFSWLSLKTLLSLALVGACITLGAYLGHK

| binding | Substance |
| --- | --- |
| binds | Bcl-2 (from UniProt P49950 1-236) |
| binds | Bcl-xL (from UniProt P53563-1 1-233) |
